Test results as given in article PMC5814800.
Positions count from the first letter of the chain named. Results are given in words; binding and its absence hold for the method and conditions named. For some of these results: A result given as binding can be weak or reduced; the word gives no strength. Sequences can lack the tags named with a protein.

Assays:
Experiment in all cases: two-hybrid; bacterial two-hybrid in E. coli BTH101; signal quantified by β-galactosidase assay (ONPG, ΔOD420/min/ml) of cultures grown 16 h at 30°C with IPTG
[1] = target: T1, ϕC31 IntS454G fused to T18 (Streptomyces phage ϕC31) (UniProt Q9T221)
T1 sequence: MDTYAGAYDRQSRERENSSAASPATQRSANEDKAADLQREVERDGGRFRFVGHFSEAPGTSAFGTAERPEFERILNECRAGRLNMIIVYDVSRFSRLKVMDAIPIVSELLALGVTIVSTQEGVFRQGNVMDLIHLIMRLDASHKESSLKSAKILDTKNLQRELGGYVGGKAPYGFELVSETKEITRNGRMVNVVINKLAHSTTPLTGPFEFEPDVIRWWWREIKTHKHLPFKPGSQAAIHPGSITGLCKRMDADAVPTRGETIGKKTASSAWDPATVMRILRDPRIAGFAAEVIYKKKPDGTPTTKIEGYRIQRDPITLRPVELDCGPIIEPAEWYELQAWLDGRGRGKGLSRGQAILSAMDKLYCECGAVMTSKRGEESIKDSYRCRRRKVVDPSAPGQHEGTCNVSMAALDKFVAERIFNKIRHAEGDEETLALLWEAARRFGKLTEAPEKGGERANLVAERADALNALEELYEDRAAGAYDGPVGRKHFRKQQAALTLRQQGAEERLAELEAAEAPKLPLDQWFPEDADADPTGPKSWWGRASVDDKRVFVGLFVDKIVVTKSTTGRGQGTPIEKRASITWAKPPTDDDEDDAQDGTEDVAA

[2] = target: T2, ϕC31 IntD477V fused to T18 (Streptomyces phage ϕC31) (UniProt Q9T221)
T2 sequence: T1 sequence with G454S, D477V

[3] = target: T3, ϕC31 integrase lacking the coiled-coil motif (aa 457 to 523 deleted) fused to T18 (Streptomyces phage ϕC31) (UniProt Q9T221)
T3 sequence: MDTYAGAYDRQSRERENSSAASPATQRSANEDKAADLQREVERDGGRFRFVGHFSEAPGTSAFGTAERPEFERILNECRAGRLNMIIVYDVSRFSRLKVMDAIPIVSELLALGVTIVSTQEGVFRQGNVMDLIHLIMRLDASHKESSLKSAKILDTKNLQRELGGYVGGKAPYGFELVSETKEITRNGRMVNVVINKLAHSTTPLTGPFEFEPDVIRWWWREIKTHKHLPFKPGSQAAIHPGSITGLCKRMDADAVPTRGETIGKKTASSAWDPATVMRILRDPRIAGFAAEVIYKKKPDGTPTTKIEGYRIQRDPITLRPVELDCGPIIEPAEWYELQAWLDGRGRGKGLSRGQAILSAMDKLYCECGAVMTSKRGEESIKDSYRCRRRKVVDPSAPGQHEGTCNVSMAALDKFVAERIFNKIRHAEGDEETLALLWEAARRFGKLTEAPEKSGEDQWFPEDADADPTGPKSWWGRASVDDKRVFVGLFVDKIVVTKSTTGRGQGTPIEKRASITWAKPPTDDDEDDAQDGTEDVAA

[4] = target: T4, ϕC31 IntI420V fused to T18 (Streptomyces phage ϕC31) (UniProt Q9T221)
T4 sequence: T1 sequence with I420V, G454S

T25-ϕC31 gp3 (wild type) fusion protein (Streptomyces phage ϕC31)
binding [1]: binds
binding [2]: binds
binding [3]: no binding
binding [4]: binds
